Article PMC4825927
No constants are given. Whether binding was seen depends on the method and setting. Binding seen in cells or lysates may run through a third protein. Some entries that bind do so weakly or less than the wild type. Tags and fused reporters may be left off the sequences shown.

Sequences of proteins named here, by UniProt entry; tags and fusion partners are left off. Residues count along the entry.
UniProt Q8ZNR3, residues 56-782: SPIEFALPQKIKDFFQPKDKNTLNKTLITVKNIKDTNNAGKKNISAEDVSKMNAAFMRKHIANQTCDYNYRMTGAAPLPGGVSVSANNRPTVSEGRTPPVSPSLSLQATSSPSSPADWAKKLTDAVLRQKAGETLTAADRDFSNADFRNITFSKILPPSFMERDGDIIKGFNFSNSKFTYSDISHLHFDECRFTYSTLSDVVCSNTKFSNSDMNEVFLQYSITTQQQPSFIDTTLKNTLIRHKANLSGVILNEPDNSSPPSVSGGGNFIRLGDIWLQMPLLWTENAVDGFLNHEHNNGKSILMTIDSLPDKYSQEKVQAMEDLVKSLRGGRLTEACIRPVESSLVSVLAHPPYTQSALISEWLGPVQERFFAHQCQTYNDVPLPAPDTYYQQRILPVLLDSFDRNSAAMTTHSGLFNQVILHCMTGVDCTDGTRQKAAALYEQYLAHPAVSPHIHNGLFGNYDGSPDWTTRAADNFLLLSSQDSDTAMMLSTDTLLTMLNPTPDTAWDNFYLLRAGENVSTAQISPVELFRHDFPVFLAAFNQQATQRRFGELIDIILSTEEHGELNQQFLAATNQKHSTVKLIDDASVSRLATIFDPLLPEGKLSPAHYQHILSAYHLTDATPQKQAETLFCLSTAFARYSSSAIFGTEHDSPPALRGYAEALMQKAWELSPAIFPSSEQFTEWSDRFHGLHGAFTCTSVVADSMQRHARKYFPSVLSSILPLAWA

What was measured:
[1] = target: FLAG-epitope-tagged SopA^56-782 (wild type), pRK5 (Salmonella enterica serovar Typhimurium) (UniProt Q8ZNR3); test: co-IP; HEK 293T transiently co-transfected with a FLAG-tagged and an M45-tagged protein; lysis in 20 mM Hepes pH 7.4, 150 mM NaCl, 0.2% Triton-X-100; anti-FLAG M2 agarose 2 h; Western blot with anti-M45 and anti-FLAG
[2] = target: T1, FLAG-epitope-tagged RIG-I (full length) (human) (UniProt O95786); test: as above
T1 sequence: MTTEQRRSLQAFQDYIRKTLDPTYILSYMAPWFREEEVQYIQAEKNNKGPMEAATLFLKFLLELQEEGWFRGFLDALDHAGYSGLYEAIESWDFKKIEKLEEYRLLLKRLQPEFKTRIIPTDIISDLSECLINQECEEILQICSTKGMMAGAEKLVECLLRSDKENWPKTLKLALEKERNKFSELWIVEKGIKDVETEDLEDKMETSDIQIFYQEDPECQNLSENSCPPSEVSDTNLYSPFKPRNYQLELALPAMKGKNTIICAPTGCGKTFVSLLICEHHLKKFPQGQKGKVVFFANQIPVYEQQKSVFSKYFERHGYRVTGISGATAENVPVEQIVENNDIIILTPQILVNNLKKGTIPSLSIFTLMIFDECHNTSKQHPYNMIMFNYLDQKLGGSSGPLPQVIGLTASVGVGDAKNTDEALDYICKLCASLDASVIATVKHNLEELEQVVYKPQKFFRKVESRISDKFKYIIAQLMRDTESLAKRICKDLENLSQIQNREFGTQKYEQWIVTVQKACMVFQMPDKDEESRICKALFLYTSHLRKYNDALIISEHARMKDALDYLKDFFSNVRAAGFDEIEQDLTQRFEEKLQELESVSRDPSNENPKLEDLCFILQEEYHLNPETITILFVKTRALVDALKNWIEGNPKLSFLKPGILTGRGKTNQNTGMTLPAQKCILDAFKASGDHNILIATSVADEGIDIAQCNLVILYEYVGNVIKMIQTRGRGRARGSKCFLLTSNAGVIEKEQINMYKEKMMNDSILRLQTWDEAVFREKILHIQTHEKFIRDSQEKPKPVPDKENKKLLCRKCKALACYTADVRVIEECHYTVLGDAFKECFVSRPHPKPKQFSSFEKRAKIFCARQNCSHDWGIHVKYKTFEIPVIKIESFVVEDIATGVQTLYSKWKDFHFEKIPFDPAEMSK

B1: M45-epitope-tagged TRIM56, pRK5 (protein, UniProt Q9BRZ2 1-755)
chain: MVSHGSSPSLLEALSSDFLACKICLEQLRAPKTLPCLHTYCQDCLAQLADGGRVRCPECRETVPVPPEGVASFKTNFFVNGLLDLVKARACGDLRAGKPACALCPLVGGTSTGGPATARCLDCADDLCQACADGHRCTRQTHTHRVVDLVGYRAGWYDEEARERQAAQCPQHPGEALRFLCQPCSQLLCRECRLDPHLDHPCLPLAEAVRARRPGLEGLLAGVDNNLVELEAARRVEKEALARLREQAARVGTQVEEAAEGVLRALLAQKQEVLGQLRAHVEAAEEAARERLAELEGREQVARAAAAFARRVLSLGREAEILSLEGAIAQRLRQLQGCPWAPGPAPCLLPQLELHPGLLDKNCHLLRLSFEEQQPQKDGGKDGAGTQGGEESQSRREDEPKTERQGGVQPQAGDGAQTPKEEKAQTTREEGAQTLEEDRAQTPHEDGGPQPHRGGRPNKKKKFKGRLKSISREPSPALGPNLDGSGLLPRPIFYCSFPTRMPGDKRSPRITGLCPFGPREILVADEQNRALKRFSLNGDYKGTVPVPEGCSPCSVAALQSAVAFSASARLYLINPNGEVQWRRALSLSQASHAVAALPSGDRVAVSVAGHVEVYNMEGSLATRFIPGGKASRGLRALVFLTTSPQGHFVGSDWQQNSVVICDGLGQVVGEYKGPGLHGCQPGSVSVDKKGYIFLTLREVNKVVILDPKGSLLGDFLTAYHGLEKPRVTTMVDGRYLVVSLSNGTIHIFRVRSPDS
B1 was tested. Which binding [1] did it give?
Its binding is “binds”.

B2: M45-epitope-tagged TRIM65, pRK5 (protein, UniProt Q6PJ69 1-517)
chain: MAAQLLEEKLTCAICLGLYQDPVTLPCGHNFCGACIRDWWDRCGKACPECREPFPDGAELRRNVALSGVLEVVRAGPARDPGPDPGPGPDPAARCPRHGRPLELFCRTEGRCVCSVCTVRECRLHERALLDAERLKREAQLRASLEVTQQQATQAEGQLLELRKQSSQIQNSACILASWVSGKFSSLLQALEIQHTTALRSIEVAKTQALAQARDEEQRLRVHLEAVARHGCRIRELLEQVDEQTFLQESQLLQPPGPLGPLTPLQWDEDQQLGDLKQLLSRLCGLLLEEGSHPGAPAKPVDLAPVEAPGPLAPVPSTVCPLRRKLWQNYRNLTFDPVSANRHFYLSRQDQQVKHCRQSRGPGGPGSFELWQVQCAQSFQAGHHYWEVRASDHSVTLGVSYPQLPRCRLGPHTDNIGRGPCSWGLCVQEDSLQAWHNGEAQRLPGVSGRLLGMDLDLASGCLTFYSLEPQTQPLYTFHALFNQPLTPVFWLLEGRTLTLCHQPGAVFPLGPQEEVLS
What does the source list for B2?
binding [2]: no binding; binding [1]: binds
